According to article PMC7819943, “Rice protein-binding microarrays: a tool to detect cis-acting elements near promoter regions in rice”:
This is one part of the list.

Sequences of proteins named here, by UniProt entry; tags and fusion partners are left off.
UniProt Q0JBA9, entry or part of it: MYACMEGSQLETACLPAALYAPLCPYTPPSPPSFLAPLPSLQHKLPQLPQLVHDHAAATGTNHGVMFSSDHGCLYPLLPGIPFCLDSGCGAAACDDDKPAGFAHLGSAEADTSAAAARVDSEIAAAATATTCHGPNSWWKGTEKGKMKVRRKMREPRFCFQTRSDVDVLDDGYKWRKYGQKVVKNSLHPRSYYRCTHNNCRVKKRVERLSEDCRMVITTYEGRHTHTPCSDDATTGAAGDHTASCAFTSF

target: OsWRKY34 (Oryza sativa, UniProt Q0JBA9 1-250); test: protein-binding microarray (RPBM); PBS, 2% BSA, 51.3 ng/ul salmon testes DNA, 50 uM zinc acetate, 200 nM TF, 25 C, 1 h; high values mean tight binding; details: protein: recombinant; tags: N-terminal polyhistidine and DsRed monomer fusion (pET32a); label: CyDye5-dUTP incorporated in the synthesized complementary strand; 3' TTTTT single-stranded linker to array surface; dsDNA, one strand shown
In short: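 A custom Agilent array was converted to double-stranded form by primer extension with Cy5-dUTP and blocked with 2% BSA. Protein at 200 nM in PBS with 2% BSA, salmon testes DNA and 50 µM zinc acetate was applied for 1 h at 25 °C, followed by washing. The proteins were polyhistidine–DsRed N-terminal fusions of transcription factors, expressed in E. coli BL21-CodonPlus and Ni–NTA-purified. The binding signal is per-feature fluorescence intensity (arbitrary units) from an Axon 4000B scanner.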

Sequence | binding signal
AGCAGCAGCAGTACTCGCCCACCGGACACCACCCCATGCCCGGAGTCACCTAGTGCAG | 9730 fluorescence intensity (a.u.)
CTTGCTGTCCTCTCGTTTCCTGTGTCATTCTCGCGCGCCACGGAGTCACCTAGTGCAG | 9800 fluorescence intensity (a.u.)
TGTTCGTCGTCGTCGTCTCCCTCGCCGGCCGCGACGCCACCGGAGTCACCTAGTGCAG | 8030 fluorescence intensity (a.u.)
ATTAAAGTTGGATACGGAAACCCAGGGTTTGTCTTTTTTTCGGAGTCACCTAGTGCAG | 9170 fluorescence intensity (a.u.)
CTTCTTTGCATGCATGAGCTGCCAGCCTGTCCGTCCAATACGGAGTCACCTAGTGCAG | 8150 fluorescence intensity (a.u.)
ACACCTGCCATGTGTCTCCACCATATAGTCCGTTATAACACGGAGTCACCTAGTGCAG | 8670 fluorescence intensity (a.u.)
ATTCATGAGTGTGTAGGTGTGACGTTGCGTGTCTAGTGTTCGGAGTCACCTAGTGCAG | 8180 fluorescence intensity (a.u.)
GCCATGCGATTTTCGAGCTGCATGCAGCATGGAACATTCCCGGAGTCACCTAGTGCAG | 8280 fluorescence intensity (a.u.)
AATTTCCATTCTCCTCACACCTTTAAAAGTAGGCTCAAAACGGAGTCACCTAGTGCAG | 8040 fluorescence intensity (a.u.)
ACTATACATATTGCATCTGTTGCATATAATACTGTATTTCCGGAGTCACCTAGTGCAG | 8690 fluorescence intensity (a.u.)
TTTTTTGTTGCTCGGACTGAAGTTCCTGAGCCTTGATTTTCGGAGTCACCTAGTGCAG | 10600 fluorescence intensity (a.u.)
GCGGGATGGCAGTTCTTACTTCTAGAGTTTTTTTATCTGACGGAGTCACCTAGTGCAG | 9690 fluorescence intensity (a.u.)
GTTCTGTTCAACCTCGGTCTGCTCTGCACGTGCCCTGCGGCGGAGTCACCTAGTGCAG | 8580 fluorescence intensity (a.u.)
AAATCGTCTCAAGTTTTACTTTGAATTTGTACTGTAGGTCCGGAGTCACCTAGTGCAG | 8220 fluorescence intensity (a.u.)
TCCCTCCGCGTCAAAGGAAAATCTCCCGTCTTCGTCTCCGCGGAGTCACCTAGTGCAG | 8350 fluorescence intensity (a.u.)
TCACAACATTCTCTCGTTTAATTTTACATACTTTTTCTAACGGAGTCACCTAGTGCAG | 8560 fluorescence intensity (a.u.)
CTTTGTTCTTTGCGGTGTTTCGTTTTCACATCCCTGGAAACGGAGTCACCTAGTGCAG | 13600 fluorescence intensity (a.u.)
CAGATCACTTTATTACATGCCTTTTTTCGCCGGCCAATCACGGAGTCACCTAGTGCAG | 8260 fluorescence intensity (a.u.)
CTGTGTTGCCCAAGTCTTTAAATAGCTCTCTCCTCAGTCTCGGAGTCACCTAGTGCAG | 9410 fluorescence intensity (a.u.)
CTTCTCACACGTCGTCAAAGCCTCTGACTTTGGATATCCCCGGAGTCACCTAGTGCAG | 9990 fluorescence intensity (a.u.)
ACGCGGAGGGGTATTTCATCTAGTATTATTTAAGAGCTATCGGAGTCACCTAGTGCAG | 8800 fluorescence intensity (a.u.)
ACCATAGGCAGCTTTACGTAACAATAACGTCCACCCGCTTCGGAGTCACCTAGTGCAG | 8180 fluorescence intensity (a.u.)
GGATAACATAGTCATCGGTATTACTTTCTGCGCAATCAATCGGAGTCACCTAGTGCAG | 8560 fluorescence intensity (a.u.)
CCGCCAAGGTTGTGCCAGTTCCGGTTTTTTTCCAGTTCAACGGAGTCACCTAGTGCAG | 9260 fluorescence intensity (a.u.)
TTTCTGCAATGAGGTCATGTTTCATACCATCTTATTTTGTCGGAGTCACCTAGTGCAG | 8830 fluorescence intensity (a.u.)
ATTGGGTTGATATTATATTGGCAGGGCCAGAAAGTTTTACCGGAGTCACCTAGTGCAG | 8580 fluorescence intensity (a.u.)
CTTGCCACATCATTTTTCATCCTAGGTGGTAGCTTATTTACGGAGTCACCTAGTGCAG | 12900 fluorescence intensity (a.u.)

Sequence | binding signal
CCCTCGGCAGCCAAAATTTTGCTCATCATCCTCTCCAGTTCGGAGTCACCTAGTGCAG | 10000 fluorescence intensity (a.u.)
GCCACCGCCTGCCTGCCGCCGCCGTCTCCCACCTCCCGCCCGGAGTCACCTAGTGCAG | 11200 fluorescence intensity (a.u.)
GGCCCCTTATTTATTCGCATTCCTCTCCTCATCATCACTCCGGAGTCACCTAGTGCAG | 8970 fluorescence intensity (a.u.)
TTCTTCGTATTTATTCCTGTTCATCATCATCCCTGACGTCCGGAGTCACCTAGTGCAG | 10700 fluorescence intensity (a.u.)
GAGCTTTGATATATATTTGTACGAGTAAGCAGTACTCCATCGGAGTCACCTAGTGCAG | 8290 fluorescence intensity (a.u.)
CGCCGGTACGTTTTCCCCGCCGCCGCCTTTCCGGCCGGCCCGGAGTCACCTAGTGCAG | 8950 fluorescence intensity (a.u.)
ACTACTCTGTTTGACCATCATTTTAGTTTTCCTCGATTAACGGAGTCACCTAGTGCAG | 9420 fluorescence intensity (a.u.)
TCTGTTCCGCATGTTCGAGCTCGCCTACAGCAACATATTTCGGAGTCACCTAGTGCAG | 9270 fluorescence intensity (a.u.)
TCTAGCACTCTTTTTTTTCCTGAATTTAGAACTCATTGCCCGGAGTCACCTAGTGCAG | 8270 fluorescence intensity (a.u.)
CTGTCATCACTCATCACTCTTTCTCAAAGCTTCTATCAAACGGAGTCACCTAGTGCAG | 10100 fluorescence intensity (a.u.)
TCATTTGCTCCATGCTGTATCTGTTTTGACAAATTGTTCACGGAGTCACCTAGTGCAG | 10200 fluorescence intensity (a.u.)
GCAAGCACTAGTACTCCATTGACTAGTCTTTCATTTCACACGGAGTCACCTAGTGCAG | 9420 fluorescence intensity (a.u.)
CTTCTCGTGGGGCATATATCCCTTCTGCGCTGTACTGTAACGGAGTCACCTAGTGCAG | 9620 fluorescence intensity (a.u.)
ATTTCTTCTATTTTGTTTTGACAATACTGTGTTTCAAAGACGGAGTCACCTAGTGCAG | 8530 fluorescence intensity (a.u.)
GAGAGTTGGCTATATGGGTGTTTGGAGAGTTCGATTTGGACGGAGTCACCTAGTGCAG | 10100 fluorescence intensity (a.u.)
GGGAGTACATTTACATTTTATTATTATTGTCATTTTTTATCGGAGTCACCTAGTGCAG | 11200 fluorescence intensity (a.u.)
CAAGTGTTCAGTGTCCTCGATTTGTTTTGTATTTGGTAACCGGAGTCACCTAGTGCAG | 13000 fluorescence intensity (a.u.)
TCTCTTTTTGTTGTCTTTATGTTTGTATGTTTGTCTCCTTCGGAGTCACCTAGTGCAG | 12700 fluorescence intensity (a.u.)
TCAGTTTAGTCCTTGATATTTCAATCTATCCATATTAGTCCGGAGTCACCTAGTGCAG | 8390 fluorescence intensity (a.u.)
TTCTCCCTTTATTTTTGTTTATATAATTTCCAGATCAAAGCGGAGTCACCTAGTGCAG | 8890 fluorescence intensity (a.u.)
ATTACACGCTTGAGTTGCAACCATTTCTGCAGTTTCGGCTCGGAGTCACCTAGTGCAG | 8950 fluorescence intensity (a.u.)
CACATTAGAACAATTCAAAGTCTCATACATCATCGTTCATCGGAGTCACCTAGTGCAG | 8230 fluorescence intensity (a.u.)
CGCGATCACTCGATCTCACTCACCAACCTTTTCCATTTTACGGAGTCACCTAGTGCAG | 12200 fluorescence intensity (a.u.)
GACAAGTTTCAGTGCGTGACAGGGGAGGGGCTACAGAACTCGGAGTCACCTAGTGCAG | 8750 fluorescence intensity (a.u.)
AGGCTCATCCTGTCCCGTCCTGTAGCCGTTACAAGTTGGTCGGAGTCACCTAGTGCAG | 8070 fluorescence intensity (a.u.)
TGGTTCTTTGATCTTTTAATTTTGTTTGTTTGTTTGTTTTCGGAGTCACCTAGTGCAG | 12800 fluorescence intensity (a.u.)
ACGCCACCCGCGCCCGCGCCCAACCAACCCACTCGGTCTCCGGAGTCACCTAGTGCAG | 9030 fluorescence intensity (a.u.)

In another format: results already given.
Sequence	binding signal
CTGTCATCACTCATCACTCTTTCTCAAAGCTTCTATCAAACGGAGTCACCTAGTGCAG	10100 fluorescence intensity (a.u.)
TCATTTGCTCCATGCTGTATCTGTTTTGACAAATTGTTCACGGAGTCACCTAGTGCAG	10200 fluorescence intensity (a.u.)
GCAAGCACTAGTACTCCATTGACTAGTCTTTCATTTCACACGGAGTCACCTAGTGCAG	9420 fluorescence intensity (a.u.)
CTTCTCGTGGGGCATATATCCCTTCTGCGCTGTACTGTAACGGAGTCACCTAGTGCAG	9620 fluorescence intensity (a.u.)
ATTTCTTCTATTTTGTTTTGACAATACTGTGTTTCAAAGACGGAGTCACCTAGTGCAG	8530 fluorescence intensity (a.u.)
GAGAGTTGGCTATATGGGTGTTTGGAGAGTTCGATTTGGACGGAGTCACCTAGTGCAG	10100 fluorescence intensity (a.u.)
GGGAGTACATTTACATTTTATTATTATTGTCATTTTTTATCGGAGTCACCTAGTGCAG	11200 fluorescence intensity (a.u.)
CAAGTGTTCAGTGTCCTCGATTTGTTTTGTATTTGGTAACCGGAGTCACCTAGTGCAG	13000 fluorescence intensity (a.u.)
TCTCTTTTTGTTGTCTTTATGTTTGTATGTTTGTCTCCTTCGGAGTCACCTAGTGCAG	12700 fluorescence intensity (a.u.)
TCAGTTTAGTCCTTGATATTTCAATCTATCCATATTAGTCCGGAGTCACCTAGTGCAG	8390 fluorescence intensity (a.u.)
TTCTCCCTTTATTTTTGTTTATATAATTTCCAGATCAAAGCGGAGTCACCTAGTGCAG	8890 fluorescence intensity (a.u.)
ATTACACGCTTGAGTTGCAACCATTTCTGCAGTTTCGGCTCGGAGTCACCTAGTGCAG	8950 fluorescence intensity (a.u.)
CACATTAGAACAATTCAAAGTCTCATACATCATCGTTCATCGGAGTCACCTAGTGCAG	8230 fluorescence intensity (a.u.)
